Primary screen of a compound library

Chains of the proteins cited; added tags and fusions are not shown. Residues count along the entry.
UniProt A4I591, 1-473: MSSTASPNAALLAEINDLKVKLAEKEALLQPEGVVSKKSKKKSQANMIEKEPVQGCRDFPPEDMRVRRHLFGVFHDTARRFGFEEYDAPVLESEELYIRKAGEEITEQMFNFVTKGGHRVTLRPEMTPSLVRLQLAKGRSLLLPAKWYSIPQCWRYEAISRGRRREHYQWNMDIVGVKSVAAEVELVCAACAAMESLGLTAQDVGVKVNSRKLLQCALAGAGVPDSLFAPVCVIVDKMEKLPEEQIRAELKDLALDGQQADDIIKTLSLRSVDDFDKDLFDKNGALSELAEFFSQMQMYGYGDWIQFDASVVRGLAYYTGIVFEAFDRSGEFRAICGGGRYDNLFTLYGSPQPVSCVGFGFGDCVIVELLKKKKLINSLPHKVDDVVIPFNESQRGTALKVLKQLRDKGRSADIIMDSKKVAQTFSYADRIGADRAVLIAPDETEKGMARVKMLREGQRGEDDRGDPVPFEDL
UniProt I6X8D2, whole entry: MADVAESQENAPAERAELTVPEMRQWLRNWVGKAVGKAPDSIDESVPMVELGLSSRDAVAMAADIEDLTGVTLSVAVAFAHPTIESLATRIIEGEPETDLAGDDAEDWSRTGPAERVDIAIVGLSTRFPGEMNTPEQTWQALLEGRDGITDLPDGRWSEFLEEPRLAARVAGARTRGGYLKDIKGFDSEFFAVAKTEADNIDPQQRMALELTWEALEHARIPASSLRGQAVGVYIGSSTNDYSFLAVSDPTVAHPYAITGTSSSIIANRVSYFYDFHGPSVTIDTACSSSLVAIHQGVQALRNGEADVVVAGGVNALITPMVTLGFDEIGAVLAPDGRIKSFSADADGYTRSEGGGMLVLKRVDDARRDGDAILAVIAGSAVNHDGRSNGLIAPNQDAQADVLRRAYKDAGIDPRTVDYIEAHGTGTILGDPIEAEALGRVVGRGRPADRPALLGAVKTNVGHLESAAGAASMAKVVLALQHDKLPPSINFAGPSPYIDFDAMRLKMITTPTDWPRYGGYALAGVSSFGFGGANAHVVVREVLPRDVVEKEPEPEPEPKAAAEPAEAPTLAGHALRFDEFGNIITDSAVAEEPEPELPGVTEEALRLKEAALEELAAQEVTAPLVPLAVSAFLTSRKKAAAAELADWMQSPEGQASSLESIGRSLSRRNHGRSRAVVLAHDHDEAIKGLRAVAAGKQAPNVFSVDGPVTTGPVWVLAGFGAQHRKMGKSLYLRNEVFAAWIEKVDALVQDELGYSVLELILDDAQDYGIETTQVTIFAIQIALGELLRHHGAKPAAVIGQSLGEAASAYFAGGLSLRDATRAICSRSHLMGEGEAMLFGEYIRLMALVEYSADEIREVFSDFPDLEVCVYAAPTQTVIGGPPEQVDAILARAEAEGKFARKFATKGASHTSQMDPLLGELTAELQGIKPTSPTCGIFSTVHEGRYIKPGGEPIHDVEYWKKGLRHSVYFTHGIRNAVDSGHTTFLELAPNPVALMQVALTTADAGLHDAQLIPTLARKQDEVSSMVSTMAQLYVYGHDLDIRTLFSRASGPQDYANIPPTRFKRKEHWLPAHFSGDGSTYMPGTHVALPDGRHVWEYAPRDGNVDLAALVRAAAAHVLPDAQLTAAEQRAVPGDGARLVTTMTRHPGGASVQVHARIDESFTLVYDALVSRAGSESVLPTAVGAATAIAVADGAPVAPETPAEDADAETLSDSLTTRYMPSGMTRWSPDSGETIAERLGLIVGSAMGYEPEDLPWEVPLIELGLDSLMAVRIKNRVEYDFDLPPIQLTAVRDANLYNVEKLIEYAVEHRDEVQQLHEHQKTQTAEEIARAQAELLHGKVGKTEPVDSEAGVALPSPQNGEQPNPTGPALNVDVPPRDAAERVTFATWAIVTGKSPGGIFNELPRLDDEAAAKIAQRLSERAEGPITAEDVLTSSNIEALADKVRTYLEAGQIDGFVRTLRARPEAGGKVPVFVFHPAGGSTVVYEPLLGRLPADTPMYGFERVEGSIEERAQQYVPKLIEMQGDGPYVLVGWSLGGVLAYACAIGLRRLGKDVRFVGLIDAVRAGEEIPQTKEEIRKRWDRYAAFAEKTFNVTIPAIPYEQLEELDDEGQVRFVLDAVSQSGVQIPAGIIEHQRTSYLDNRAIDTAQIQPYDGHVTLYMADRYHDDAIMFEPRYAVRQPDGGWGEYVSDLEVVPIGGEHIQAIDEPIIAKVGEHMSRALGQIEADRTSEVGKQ
UniProt P9WFT3, whole entry: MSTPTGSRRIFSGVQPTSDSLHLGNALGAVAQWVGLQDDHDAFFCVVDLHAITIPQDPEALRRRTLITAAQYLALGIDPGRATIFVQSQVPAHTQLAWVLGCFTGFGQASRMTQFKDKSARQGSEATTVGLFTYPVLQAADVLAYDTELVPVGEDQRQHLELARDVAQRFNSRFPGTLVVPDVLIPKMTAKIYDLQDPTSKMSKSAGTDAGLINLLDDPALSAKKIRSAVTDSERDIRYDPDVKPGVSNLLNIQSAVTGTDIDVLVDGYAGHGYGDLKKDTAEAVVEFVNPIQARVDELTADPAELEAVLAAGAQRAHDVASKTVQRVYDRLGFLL
UniProt Q4DA54, 1-478: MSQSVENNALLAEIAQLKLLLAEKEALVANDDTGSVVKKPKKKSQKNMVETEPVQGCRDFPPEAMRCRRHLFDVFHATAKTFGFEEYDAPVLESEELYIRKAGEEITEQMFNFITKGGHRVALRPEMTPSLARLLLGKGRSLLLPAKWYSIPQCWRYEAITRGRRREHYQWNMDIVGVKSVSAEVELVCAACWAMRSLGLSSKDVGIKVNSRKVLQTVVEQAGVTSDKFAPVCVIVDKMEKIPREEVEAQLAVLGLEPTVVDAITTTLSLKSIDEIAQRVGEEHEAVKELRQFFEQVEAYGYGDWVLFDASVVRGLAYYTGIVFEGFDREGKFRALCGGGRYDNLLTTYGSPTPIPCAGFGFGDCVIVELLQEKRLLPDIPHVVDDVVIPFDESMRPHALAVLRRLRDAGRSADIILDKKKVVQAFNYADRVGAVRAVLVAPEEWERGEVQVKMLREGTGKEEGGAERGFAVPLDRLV

Measurements from “University of Dundee, Small-Polar-MMV Screening Library” (2021), ChEMBL document CHEMBL3988442.

LiHisRS: 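Enzyme assay of histidyl-tRNA synthetase; the read-out is not stated. Target: Histidine-tRNA ligase, Leishmania infantum (UniProt A4I591). Concentration: 30 µM. Direction is inferred from retests: higher values go with stronger inhibition. The assay is labelled LdHisRS but filed under L. infantum. Size under these conditions: about 69,000 compounds, about 410 of them at 50% or above in at least one test.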
Pks13 thioesterase: 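Enzyme assay of the thioesterase domain of polyketide synthase 13; the read-out is not stated. Target: Polyketide synthase Pks13, Mycobacterium tuberculosis (UniProt I6X8D2). Compounds at 30 µM. Higher reads as stronger inhibition (inferred from which compounds were picked for retests). Size under these conditions: about 67,000 compounds, about 300 of them at 50% or above in at least one test.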
MtTrpRS: 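Enzyme assay of tryptophanyl-tRNA synthetase; the read-out is not stated. Target: Tryptophan-tRNA ligase, Mycobacterium tuberculosis (UniProt P9WFT3). Tested at 10 µM. Higher most likely means stronger inhibition; the record gives no direction and few retests gave an IC50. Size under these conditions: about 65,000 compounds, about 64 of them at 50% or above in at least one test.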
TcHisRS: 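Histidine-tRNA ligase, Trypanosoma cruzi CL Brener (UniProt Q4DA54). Enzyme assay of histidyl-tRNA synthetase; the read-out is not stated. Concentration: 30 µM. Direction is inferred from retests: higher values go with stronger inhibition. About 69,000 compounds were tested under these conditions; 0.045% (about 31) showed 50% or more at least once.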

Each number is a percent effect as filed. The record does not define 0% and 100%; most values in the screen are far below 50% and negative numbers occur (in some assays of this library far below -100). The compounds are a random part of those screened. A dash means the value is not listed here; it may have been measured.

structure | LiHisRS | Pks13 thioesterase | MtTrpRS | TcHisRS
CN(C)CCN(C)C[C@H]1CN2CC[C@H]1C[C@@H]2CNC(=O)Nc1ccsc1 | 0 | 15.06 | -4.895 | 4.95
CC(=O)N(C)Cc1ccccc1NC(=O)c1cnn(C)c1C | 14.94 | -19.84 | -4.649 | 7.216
Cn1cnc2c1CCN(Cc1csc(-c3ccc(F)cc3)n1)C2 | 10.19 | -19.24 | -10.29 | 7.918
Cc1ccc(NCc2ccc(C#N)cc2)c(CN(C)C)c1 | -2.74 | -4.155 | -5.056 | 3.784
Cc1cc(C)c(CNC(=O)N2CCCC2c2cccc(F)c2)c(=O)[nH]1 (stereo not drawn) | 3.509 | -10.66 | 13.96 | 0.2865
CC(C)(C)OC(=O)N1CCCN(c2nnc(Br)s2)CC1 | 6.25 | -1.831 | -9.292 | 5.208
O=C(NC[C@H]1OC[C@@H](NCc2ccc(F)cc2)[C@@H]1O)N1CCOCC1 | 20.27 | -40.36 | 1.593 | 2.174
COc1ccccc1CN(C)Cc1ccnc(C2CCCO2)n1 (stereo not drawn) | 9.859 | 34.91 | -4.485 | 5.303
CCc1ncc2c(n1)CN(Cc1nc(-c3cccs3)no1)CC2 | 23.21 | 4.507 | -4.309 | 13.37
CCCC(O)CNc1cncc(Br)c1 (stereo not drawn) | 95.89 | -15.57 | 1.821 | 6.349
Cc1cccc(-c2nc(C)nn2CC(=O)NC2CCCC2)c1 | 24.66 | -6.54 | -0.07993 | 1.527
COc1cccc(-c2noc(C3CCN(Cc4ccccc4C)C3)n2)c1 (stereo not drawn) | 5.714 | 44.98 | - | 0
Cc1ccc(-n2nc(C)c3c2NC(=O)CC3c2cnc(N)s2)cc1 (stereo not drawn) | 17.33 | -38.23 | -3.271 | 10.98
Cc1noc(-c2ccc(N(C)Cc3ccncc3C)nc2)n1 | 18.4 | -11.8 | 1.957 | 3.518
COc1ccc(-n2ncc(C(C)NC3CCSCC3)c2C)cc1 (stereo not drawn) | -27.4 | -9.332 | -4.164 | 1.622
COc1cc2nc(C)n(CC(=O)NCCC(C)C)c(=O)c2cc1OC | 12.82 | -6.984 | 0.1961 | 2.41
O=C(Nc1ccccn1)C1CCN(Cc2cc3c(cc2O)OCO3)CC1 | 19.05 | -1.946 | -0.000006 | 11.88
COCC(C)NC(=O)CN1CCC(C)CC1 (stereo not drawn) | 3.614 | 2.131 | 0.4079 | 0
Cc1csc(NC(=O)CN2CCc3nn(C)c(=O)cc3C2)n1 | 24.24 | -11.67 | 9.511 | 4.233
CCN(CC1CCOCC1)C(=O)CCNC(=O)c1ccccc1F | 15.38 | -24.47 | -0.2683 | 1.149
O=S(=O)(C1CC1)N1CCC2(CN(c3ccccn3)C2)C1 | 17.95 | -31.88 | -1.763 | 5.882
CCN(Cc1cnn(C)c1)C(=O)c1ccc(C)c(N2CCNC2=O)c1 | 27.71 | -7.075 | 2.583 | 6.098
Cc1cnn(CC(=O)N2CCC3(CCC(=O)N(CC(C)O)C3)CC2)c1 (stereo not drawn) | -1.075 | -24.25 | -6.539 | 6.806
O=S(=O)(NC1CCCCC12OCCO2)c1cc(F)cc(F)c1 (stereo not drawn) | 23.66 | -20.29 | 1.25 | 7.772
COc1c(CNC2CCN(c3ccccn3)CC2)c(C(C)C)nn1C | 2.679 | -11.01 | 1.101 | 1.156
COc1cc(NC(=O)c2ccccc2F)c(C(=O)N(C)C)cc1OC | 8.491 | 0.9023 | -0.4143 | 3.347
COCCC(Cc1cccc(Br)c1)C(N)=O (stereo not drawn) | 14.29 | -17.46 | -1.386 | 5.155
O=C(c1cc(Cl)ccc1OC1CCN(C2CCCC2)CC1)N1CC(O)C1 | 24 | -19.35 | 12.09 | -1.63
CCN1CCN(c2ccc(F)cc2C(C)NCc2ccccn2)CC1 (stereo not drawn) | 14.75 | 13.99 | 5.541 | -186.1
CS(=O)(=O)CCCNC1(c2cccc(Cl)c2)CCCC1 | 1.333 | -16.61 | -5.924 | 2.89
c1cc(-c2c[nH]c([C@@H]3COCCN3C3CCOCC3)n2)ccn1 | 17.57 | -10.32 | -0.9863 | 5.435
CCN(CC(=O)NC)S(=O)(=O)c1cnc2c(c1)c(C)nn2C | 6.667 | -29.7 | -3.271 | 5.202
CN(C)C(=O)CCCS(=O)(=O)Cc1cc(Cl)c2c(c1)OCCO2 | -22.67 | -31.31 | -6.278 | -4.046
O=C(NCc1ccco1)N1CCOC(c2ccccc2Cl)C1 (stereo not drawn) | -3.109 | -49.62 | -1.943 | 6.077

For reference, 3 entries once more:

For c1cc(-c2c[nH]c([C@@H]3COCCN3C3CCOCC3)n2)ccn1 the result was LiHisRS: 17.57%; Pks13 thioesterase: -10.32%; MtTrpRS: -0.9863%; TcHisRS: 5.435%.
For COc1cccc(-c2noc(C3CCN(Cc4ccccc4C)C3)n2)c1 (stereo not drawn) the result was LiHisRS: 5.714%; Pks13 thioesterase: 44.98%; TcHisRS: 0%.
For CS(=O)(=O)CCCNC1(c2cccc(Cl)c2)CCCC1 the result was LiHisRS: 1.333%; Pks13 thioesterase: -16.61%; MtTrpRS: -5.924%; TcHisRS: 2.89%.